Laboratory results reported in PubChem BioAssay AID687031 (Broad Institute, 2013).
This is a selection; strong and weak results do not stand in their true shares. Measured potencies and affinities stand elsewhere. The source made the active and inactive calls.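 How the source made its calls: active means fitted curve reaches 30% CPE protection at or below the top valid dose, with every test run called active; inconclusive means test runs disagree, some active and some not; inactive means every test run inactive, including effects in the wrong direction.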

Assay: antiviral rescue of DENV2-infected BHK-21 cells – cell-based, ATP luminescence, cherry-pick, dose response (AID 687031);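 further: 0% = infected DMSO wells and 100% = uninfected cell wells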
Settings: BHK-21 DENV2 CPE protection, 5 d; at 19.5 µM (top of the series)

Structure (SMILES) | CPE protection (higher = active)
CCCCCCCCc1ccc(O)cc1 | inactive: 15.7%
